Experiment [1] addresses T1, dermatopontin (DPT), endogenous (human (endogenous in BT549 and MDA-MB-231)) (UniProt Q07507).
T1 sequence: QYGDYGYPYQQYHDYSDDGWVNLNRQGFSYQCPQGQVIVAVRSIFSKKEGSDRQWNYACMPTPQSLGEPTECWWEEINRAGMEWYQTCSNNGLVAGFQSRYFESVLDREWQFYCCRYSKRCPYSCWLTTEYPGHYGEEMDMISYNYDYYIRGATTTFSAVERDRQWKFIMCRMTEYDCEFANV
The experiment can be described thus: co-IP; endogenous proteins in BT549 and MDA-MB-231 lysates; precipitation with Anti-YAP1 or Anti-DPT antibodies; western blot.

Protein sequences, listed by entry. Tags and fused reporters are not part of them.
UniProt P46937: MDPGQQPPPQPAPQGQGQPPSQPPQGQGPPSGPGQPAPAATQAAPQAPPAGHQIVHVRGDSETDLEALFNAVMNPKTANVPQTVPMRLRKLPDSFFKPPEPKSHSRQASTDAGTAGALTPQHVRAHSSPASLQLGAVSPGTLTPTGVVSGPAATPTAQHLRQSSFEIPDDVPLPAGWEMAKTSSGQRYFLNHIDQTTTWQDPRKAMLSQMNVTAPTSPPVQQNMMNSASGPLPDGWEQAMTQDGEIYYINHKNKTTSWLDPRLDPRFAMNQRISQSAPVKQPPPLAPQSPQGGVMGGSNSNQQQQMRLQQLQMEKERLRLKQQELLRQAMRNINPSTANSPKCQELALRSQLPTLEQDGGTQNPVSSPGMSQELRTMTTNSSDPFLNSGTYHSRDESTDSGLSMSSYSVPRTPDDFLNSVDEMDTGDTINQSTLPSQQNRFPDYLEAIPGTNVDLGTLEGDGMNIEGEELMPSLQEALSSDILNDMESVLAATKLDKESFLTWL

The target of experiment [2] is T2, dermatopontin (DPT), exogenous (UniProt Q07507).
T2 sequence: T1 sequence
The experiment is described as follows: co-IP; exogenous DPT and YAP; lysate incubated with primary antibody or IgG, protein A and protein G, 4 °C overnight; western blot. For orientation: A western blot detects proteins with antibodies after separation by electrophoresis.

These are yes or no findings as the source states them, for the method shown. In cells and extracts the contact can be indirect. Some results given as binding are weak or reduced against the parent protein; the word gives no strength.

We go through 2 substances from publication PMC9922281.

With “Yes-associated protein (YAP), endogenous (from UniProt P46937 1-504)”, the binding entry in experiment [1] is “binds”.
Regarding “Yes-associated protein (YAP), exogenous (from UniProt P46937 1-504)”, the binding entry in experiment [2] is on record as “binds”.
